Data on one molecule can be found in PMC10406883.

The chains behind the UniProt entries cited, without tags or fusion partners. Residues count along the entry.
UniProt P08195, residues 99-630: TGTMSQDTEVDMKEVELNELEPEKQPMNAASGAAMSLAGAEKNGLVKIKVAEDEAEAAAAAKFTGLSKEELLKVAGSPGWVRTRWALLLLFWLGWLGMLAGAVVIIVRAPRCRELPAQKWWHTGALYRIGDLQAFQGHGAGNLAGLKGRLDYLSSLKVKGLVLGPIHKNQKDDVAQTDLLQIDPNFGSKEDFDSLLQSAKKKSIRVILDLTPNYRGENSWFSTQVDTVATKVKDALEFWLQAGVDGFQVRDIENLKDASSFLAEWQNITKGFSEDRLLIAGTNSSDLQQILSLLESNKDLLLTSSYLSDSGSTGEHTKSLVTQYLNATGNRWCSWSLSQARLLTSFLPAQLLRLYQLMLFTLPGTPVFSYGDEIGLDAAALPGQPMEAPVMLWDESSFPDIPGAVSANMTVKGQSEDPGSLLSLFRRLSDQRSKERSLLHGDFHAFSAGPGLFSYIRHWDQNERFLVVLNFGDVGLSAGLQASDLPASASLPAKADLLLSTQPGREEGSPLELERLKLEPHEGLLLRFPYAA

Results are given in words; binding and its absence hold for the method and conditions named. In cells and extracts the contact can be indirect. A yes stands for co-enrichment or nearness to the bait. Other partners may have been found.

This assay has as its target 4F2hc wildtype, overexpressed from plasmid (SLC3A2^OE) (human) (UniProt P08195). Put plainly: affinity purification with mass spectrometry; immunoprecipitation by the 4F2hc antibody from SLC3A2 overexpressed PANC-1 cells, then LC-MS/MS (IP-LC-MS/MS).

B1: glycosyltransferase B3GNT3, endogenous (enzyme, UniProt Q9Y2A9 1-372)
chain: MKYLRHRRPNATLILAIGAFTLLLFSLLVSPPTCKVQEQPPAIPEALAWPTPPTRPAPAPCHANTSMVTHPDFATQPQHVQNFLLYRHCRHFPLLQDVPPSKCAQPVFLLLVIKSSPSNYVRRELLRRTWGRERKVRGLQLRLLFLVGTASNPHEARKVNRLLELEAQTHGDILQWDFHDSFFNLTLKQVLFLQWQETRCANASFVLNGDDDVFAHTDNMVFYLQDHDPGRHLFVGQLIQNVGPIRAFWSKYYVPEVVTQNERYPPYCGGGGFLLSRFTAAALRRAAHVLDIFPIDDVFLGMCLELEGLKPASHSGIRTSGVRAPSQRLSSFDPCFYRDLLLVHRFLPYEMLLMWDALNQPNLTCGNQTQIY
For the molecule B1, the binding result is listed as “binds”.
